{
  "source": "PubChem BioAssay AID540276",
  "about": "(National Center for Advancing Translational Sciences (NCATS), 2011)",
  "note": "“And” between values parts separate entries of the source, which are not always exact repeats. Identical values can stand only once. The whole screen tested about 300,000 compounds, of which about 5,400 (1.8%) were called active. The shares of active, inactive and inconclusive entries below differ from those in the screen. Calls follow the shape of the full dose curve; tested in HEK293 cells. Where the call is inconclusive, the potency comes from a doubtful curve fit. % is scaled to controls: 0 for no effect and ±100 for the full control effect; potency is read from the fitted curve at half-maximal effect.",
  "data": [
    {"experiment": "qHTS for inhibitors of binding or entry into cells for Marburg Virus", "settings": "Marburg virus pseudotyped entry inhibition, cell reporter; activity change, negative = inhibition: at 37.8 µM (top of the series) unless noted", "values": [
      {"smiles": "COc1ccc(C)cc1S(=O)(=O)N1CCN(C(=O)c2ncoc2-c2cccc(F)c2)CC1", "Potency": "inconclusive: 35.5 µM [inhibitor, single point]"},
      {"smiles": "COc1c(Cl)cnn(-c2ccc(Cl)c(Cl)c2)c1=O", "Potency": "inconclusive: 10 µM [inhibitor, partial curve, poor fit]"},
      {"smiles": "CC(=O)c1ccc(NC(=O)CCc2c(C)nc3c(c2C)c(=O)n(C)c(=O)n3C)cc1", "Potency": "inconclusive: 6.31 µM [activator, single point]"},
      {"smiles": "Fc1cc(F)cc(NC(=S)N2CCN(c3ncccn3)CC2)c1", "Potency": "inconclusive: 3.98 µM [inhibitor, partial curve, poor fit]"},
      {"smiles": "O=[N+]([O-])c1ccc(SNc2ccccc2)c([N+](=O)[O-])c1", "Potency": "inconclusive: 35.5 µM [inhibitor, single point]"},
      {"smiles": "CCCC1=Nc2cc(C(=O)NCc3ccco3)ccc2Sc2ccccc21", "Potency": "inconclusive: 0.291 µM [inhibitor, full curve, poor fit]"},
      {"smiles": "CSc1ncc(Cl)c(C(=O)Nc2ccc(S(=O)(=O)Nc3nccc(C)n3)cc2)n1", "Potency": "inactive"},
      {"smiles": "COc1ccc(C(=O)NC(=S)NCc2ccc(-c3nc4ccccc4o3)cc2)cc1OC", "Potency": "inconclusive: 29.1 µM [inhibitor, single point]"},
      {"smiles": "Cc1scc(C(=O)NNC(=S)NC(C)c2ccccc2)c1C", "note": "(stereo not drawn)", "activity change, negative = inhibition": "inactive: -7.56%"},
      {"smiles": "O=C(CCCN1C(=O)/C(=C\\c2ccccc2)SC1=S)N1CCOCC1", "Potency": "inconclusive: 3.55 µM [inhibitor, partial curve, poor fit]"},
      {"smiles": "Cc1ccc(C)c(-n2cc(CNCCCn3cccn3)c(-c3ccccc3)n2)c1", "Potency": "active: 10 µM"},
      {"smiles": "O=C(NCCN1CCN(c2cccc(Cl)c2)CC1)c1ccc(CSc2nc3ccncc3[nH]2)cc1", "Potency": "inconclusive: 35.5 µM [inhibitor, partial curve, poor fit]"},
      {"smiles": "Cc1cc(C)cc(OCc2nc(-c3cccnc3)no2)c1", "activity change, negative = inhibition": "inactive: -12% [at 46.1 µM]"},
      {"smiles": "CCOc1ccc(-c2nc(S(=O)(=O)c3ccccc3)c(NCc3cccnc3)o2)cc1", "activity change, negative = inhibition": "inactive: -26.9%"},
      {"smiles": "COc1ccccc1CNn1c(-c2cccc(C)c2)nc2ccccc2c1=O", "Potency": "inconclusive: 23.1 µM [inhibitor, single point]"},
      {"smiles": "Cc1cc(C)n2nc(CNC(=O)c3c(F)cccc3F)nc2n1", "Potency": "inconclusive: 35.5 µM [activator, single point]"},
      {"smiles": "NCCCCCC(=O)O", "Potency": "inconclusive: 3.66 µM [activator, single point] and inconclusive: 1.41 µM [inhibitor, full curve]"},
      {"smiles": "Cc1sc2c(c1C)C(c1ccc(C(C)(C)C)cc1)=NCC(=O)N2CC(=O)Nc1nccs1", "Potency": "inconclusive: 2.31 µM [inhibitor, partial curve, poor fit]"},
      {"smiles": "CCOc1ccc(N2C(=O)c3cccnc3C2Nc2ccc(OC)cc2)cc1", "note": "(stereo not drawn)", "activity change, negative = inhibition": "inactive: 17.8%"},
      {"smiles": "Cc1cc(C)c2c(NC(=O)C3CC3)nn(C)c2n1", "Potency": "inconclusive: 3.98 µM [inhibitor, single point]"},
      {"smiles": "CC(=O)c1cccc(NC(=S)NC(=O)c2ccccc2)c1", "Potency": "inconclusive: 1.78 µM [activator, partial curve, poor fit]"},
      {"smiles": "CC(C)Oc1ccc(/C=N/NC(=O)c2ccc(N(Cc3ccccc3)S(C)(=O)=O)cc2)cc1", "Potency": "inconclusive: 17.8 µM [activator, partial curve, poor fit]"},
      {"smiles": "Cn1c(=O)c2c(nc(Br)n2Cc2ccc3ccccc3c2)n(C)c1=O", "activity change, negative = inhibition": "inactive: -19%"},
      {"smiles": "O[C@@](CCN1CCCC1)(c1ccccc1)C1CCCCC1", "Potency": "inconclusive: 8.2 µM [inhibitor, partial curve, poor fit]"},
      {"smiles": "Cc1cc2c(=O)n(NC(N)=O)c(C)nc2s1", "Potency": "inconclusive: 14.1 µM [activator, single point]"},
      {"smiles": "COc1cccc(/C=N/Nc2nc(C)cc(=O)[nH]2)c1OC", "Potency": "inconclusive: 1 µM [activator, full curve, poor fit]"},
      {"smiles": "CCN(CC)CCOc1ccccc1C(C)=O", "Potency": "inconclusive: 6.31 µM [activator, single point]"},
      {"smiles": "COc1ccc(C(=O)/C=C/C(=O)N(CC(=O)NCCC(C)C)Cc2cccs2)c(O)c1", "Potency": "active: 20.6 µM"},
      {"smiles": "FC(F)(F)c1cccc(NC(=S)Nc2cccc(NC(=S)Nc3cccc(C(F)(F)F)c3)n2)c1", "Potency": "inconclusive: 10 µM [inhibitor, partial curve, poor fit]"},
      {"smiles": "O=C(CSc1nnc(CNC(=O)c2cccs2)o1)Nc1ccc(Cl)cc1", "activity change, negative = inhibition": "inactive: 26.4% [at 46.1 µM]"},
      {"smiles": "COCCCNC(=O)Cn1c(=O)n(-c2ccc(C)c(C)c2)c(=O)c2c3c(sc21)CCCCC3", "activity change, negative = inhibition": "inactive: 22.7% [at 46.1 µM]"},
      {"smiles": "Cc1nc2c(-c3ccccc3)c(C)nn2c(C)c1CCC(=O)NC(C)CCc1ccco1", "note": "(stereo not drawn)", "activity change, negative = inhibition": "inactive: 0.933%"},
      {"smiles": "CC(C)CCNC(=O)[C@H](CC(C)C)NC(=O)[C@H]1O[C@@H]1C(=O)O", "Potency": "inconclusive: 2.91 µM [inhibitor, full curve, poor fit]"},
      {"smiles": "COC(=O)CCC(=O)N1CCc2cc(S(=O)(=O)N3CCN(c4ccccc4Cl)CC3)ccc21", "Potency": "inconclusive: 35.5 µM [inhibitor, single point]"},
      {"smiles": "CCC1Oc2ccccc2N(CC(=O)NCCCN2CCCCC2C)C1=O", "note": "(stereo not drawn)", "Potency": "inconclusive: 5.8 µM [inhibitor, single point]"},
      {"smiles": "COc1ccc(S(=O)(=O)N2CCCCCC2)cc1C(=O)N(C)Cc1ccc(C)cc1", "activity change, negative = inhibition": "inactive: -28.9%"},
      {"smiles": "COc1ccc(OC)c(-c2cc(C3CCN(c4ncccc4[N+](=O)[O-])CC3)[nH]n2)c1", "Potency": "inconclusive: 35.5 µM [inhibitor, single point]"},
      {"smiles": "Clc1cccc(Cl)c1CO/N=C/c1cccs1", "Potency": "inconclusive: 6.31 µM [inhibitor, single point]"},
      {"smiles": "Cc1nc(C(F)(F)F)c(C(=O)N/N=C(\\N)c2ccccn2)s1", "Potency": "inconclusive: 20 µM [inhibitor, partial curve, poor fit]"},
      {"smiles": "COc1ccc(N(C)S(=O)(=O)c2cccc(C(=O)Nc3nnc(C4CC4)s3)c2)cc1", "activity change, negative = inhibition": "inactive: 17.1% [at 46.1 µM]"},
      {"smiles": "COc1ccccc1N1CCN(S(=O)(=O)c2ccc(-n3cnnn3)c(C)c2)CC1", "Potency": "inconclusive: 28.2 µM [inhibitor, single point]"},
      {"smiles": "COc1ccc(C2(c3ccc(OC)cc3)NC(=O)N(CC(=O)Nc3cc(C)ccc3OC)C2=O)cc1", "Potency": "inconclusive: 35.5 µM [inhibitor, single point]"},
      {"smiles": "Cc1ccc2c(c1)nnn2C1CCN(S(=O)(=O)c2ccc(C(=O)N(C)C)cc2)CC1", "activity change, negative = inhibition": "inactive: -18.9%"},
      {"smiles": "O=C(COC(=O)c1cccnc1Cl)c1ccc(F)cc1", "activity change, negative = inhibition": "inactive: 1.68% [at 46.1 µM]"},
      {"smiles": "CN1C(=O)C(=Cc2sc(=O)n(-c3ccccc3)c2N2CCCCC2)C(=O)N(C)C1=O", "Potency": "inconclusive: 28.2 µM [inhibitor, single point]"},
      {"smiles": "COc1ccc(NC(=O)c2nnn(Cc3nc(-c4cc(OC)c(OC)c(OC)c4)oc3C)c2C)cc1Cl", "Potency": "inconclusive: 35.5 µM [activator, single point]"},
      {"smiles": "O=C(Cn1ncc(Cl)c(Cl)c1=O)N1CCc2ccccc21", "Potency": "inconclusive: 6.31 µM [inhibitor, full curve, poor fit]"},
      {"smiles": "COc1ccc(C)cc1S(=O)(=O)N1CCN(C/C=C/c2ccccc2)CC1", "Potency": "inconclusive: 3.16 µM [activator, partial curve]"},
      {"smiles": "COc1cc(/C=C2\\C[C@H]3[C@@H]4CC=C5C[C@@H](N6CCCC6)CC[C@]5(C)[C@H]4CC[C@]3(C)[C@H]2O)cc(OC)c1OC", "Potency": "active: 10 µM"},
      {"smiles": "COc1ccc2[nH]c(=O)c(CN(Cc3cccs3)C(=S)Nc3ccccc3)cc2c1", "activity change, negative = inhibition": "inactive: 2.03%"},
      {"smiles": "CN(CC(=O)Nc1ccc(F)cc1)C(=O)C1CCN(S(=O)(=O)c2ccc3c(c2)OCCO3)CC1", "activity change, negative = inhibition": "inactive: -6.86% [at 46.1 µM]"},
      {"smiles": "O=C(Nc1nnc(C2=COCCO2)o1)c1cccc([N+](=O)[O-])c1", "activity change, negative = inhibition": "inactive: 5.85%"},
      {"smiles": "CCN(CC)S(=O)(=O)c1cccc(NC(=O)CSc2nnc(N)s2)c1", "activity change, negative = inhibition": "inactive: 5.21% [at 46.1 µM]"},
      {"smiles": "CNC(=O)c1sc(=S)n(-c2ccc(OC)cc2)c1N", "Potency": "inconclusive: 1 µM [inhibitor, partial curve, poor fit]"},
      {"smiles": "CN(C)Cc1c(O)ccc2cc(-c3nc4ccccc4n3C)c(=O)oc12", "Potency": "inconclusive: 35.5 µM [activator, partial curve, poor fit]"},
      {"smiles": "CCc1nc(NCCN2CCOCC2)c(C#N)c2c1CCCC2", "Potency": "inconclusive: 35.5 µM [inhibitor, single point]"},
      {"smiles": "COc1ccccc1NC(=O)C1=C(C)Nc2nc(SCc3ccccc3)nn2C1c1cccc(O)c1", "note": "(stereo not drawn)", "activity change, negative = inhibition": "inactive: -16.1% [at 46.1 µM]"},
      {"smiles": "O=C(NCc1cccnc1)C1CCC(CNS(=O)(=O)c2ccc(Cl)cc2)CC1", "note": "(stereo not drawn)", "Potency": "inconclusive: 4.47 µM [inhibitor, full curve, poor fit]"},
      {"smiles": "Cc1ccc(C(=O)N/C(=C\\c2ccc(-c3cc(Cl)ccc3Cl)o2)C(=O)NCc2cccnc2)cc1", "Potency": "inconclusive: 14.1 µM [inhibitor, partial curve]"},
      {"smiles": "O=C(CSCc1ccccc1)Nc1nccs1", "activity change, negative = inhibition": "inactive: 10.5%"},
      {"smiles": "O=C(Oc1ccc2ccccc2c1Cl)N1CCCC1", "Potency": "inconclusive: 5.01 µM [inhibitor, full curve, poor fit]"},
      {"smiles": "C/C(=N\\Nc1ccc(Cl)c(C(=O)O)c1)c1ccc(N2CCOCC2)cc1", "activity change, negative = inhibition": "inactive: 5.69% [at 46.1 µM]"},
      {"smiles": "CCOc1ccc(OCCNC(=O)c2oc3ccccc3c2COC)cc1", "activity change, negative = inhibition": "inactive: -21.5%"},
      {"smiles": "Clc1nssc1=Nc1ccccc1", "Potency": "inconclusive: 1 µM [inhibitor, single point]"},
      {"smiles": "CC1(C(=O)NNC(=O)c2ccc(=O)oc2)CC1Br", "note": "(stereo not drawn)", "Potency": "inconclusive: 0.562 µM [inhibitor, partial curve, poor fit]"},
      {"smiles": "Cc1ccc2cc3cc(C(=O)N4CCCCCC4)oc3nc2c1", "Potency": "inconclusive: 5.62 µM [inhibitor, full curve, poor fit]"},
      {"smiles": "O=C(/C=C/c1cccs1)NC1CCCC1", "activity change, negative = inhibition": "inactive: -14.3% [at 46.1 µM]"},
      {"smiles": "CCCN1CCC[C@@H](c2cccc(C#N)c2)C1", "Potency": "inconclusive: 35.5 µM [inhibitor, single point]"}
    ]}
  ]
}
